Some of these results come from one statement about several compounds together.
Tested on: cyclophilins
Assay: Prolyl-isomerase inhibition screen on cyclophilins and cyclophilin mutants
Assay type: biochemical, human
Procedure: Chymotrypsin coupled prolyl-isomerase assay: Adapting a previously described protocol^53, an Agilent Bravo Velocity 11 with a 384ST head, 90 μL of assay buffer (25 mM HEPES pH 7.3, 100 mM NaCl, 0.01% Triton X-100) containing 5.28 nM cyclophilin was added into a flat, clear-bottom, black 384 well plate pre-chilled in a Corning CoolBox™ at 2-3° C. 5 μL of compound pre-dissolved in 5% DMSO/assay buffer was then added to appropriate wells and incubated at 2-3° C. for 5 minutes. 5 μL of 0.5 mM α-chymotrypsin from bovine pancreas in 20% 1 mM HCl/Assay Buffer (Type II, lyophilized powder, Millipore-Sigma) was then added to each well and incubated at 2-3° C. for 5 minutes. […] Using the FLIPR's internal liquid handling system, 1 μL of 0.5 mM Suc-AAPF-AMC (Chymotrypsin Substrate II, Millipore-Sigma) dissolved in 0.55 M LiCl/2,2,2-trifluoroethanol was added to each well, which was then mixed for 5 secconds, followed by immediate fluorescence measurements every 1 sec for 330 seconds using a 360-380 nm excitation LED module and a 400-460 emission filter. […] Raw fluorescence data was analyzed by non-linear regression analysis with Prism 9 by fitting one-phase association curves to each well. Rate constants calculated for each well (s^−1) were then normalized to substrate only (no prolyl isomerase) and enzyme+substrate only controls.

## NC(=O)[C@@H]1CCNC(=O)/C=C/C(=O)N2CCC[C@](Cc3ccccc3)(C2)C(=O)N[C@@H](Cc2ccc(-c3ccc(C(CC(=O)O)CC(=O)O)cc3)cc2)C(=O)NCc2ccccc2CC(=O)N1 [Compound B53-A]
  decrease in potency versus associated analogs B52 and B53: 2- to 3 fold

## NC(=O)[C@@H]1CCNC(=O)/C=C/C(=O)N2CCC[C@](Cc3ccccc3)(C2)C(=O)N[C@@H](Cc2ccc(-c3ccc(CC(C(=O)O)C(=O)O)cc3)cc2)C(=O)NCc2ccccc2CC(=O)N1 [Compound B52-A]
  decrease in potency versus associated analogs B52 and B53: 2- to 3 fold

— patent US20250109165A1, “CYCLOPHILIN INHIBITORS AND USES THEREOF” (The Broad Institute, Inc., priority 2022, published 2025)
